Measurements as given in PubChem BioAssay AID504467 (National Center for Advancing Translational Sciences (NCATS), 2011).
Out of some 330,000 compounds screened, about 7,700 (2.3%) were called active. The inconclusive results got no clear call from the source; some entries with a clear call stand among them for comparison. Calls come from the whole dose curve; as a rule, active = well fitted inhibition curve with a large enough effect; inconclusive = small, poorly fitted or top-dose-only effect, or effect the other way; inactive = flat fitted curve, though single readings scatter. Potencies beside an inconclusive call are fits to weak or partial responses and may not hold up.

assay: qHTS screen for small molecules that inhibit ELG1-dependent DNA repair in human embryonic kidney (HEK293T) cells expressing luciferase-tagged ELG1; conditions: HEK293T ELG1-luciferase reporter, luminescence, 16 h, DNA damage induced by 5-fluorouridine; series mostly up to 46.1 µM; note: nearly all actives have a fitted effect of over 55% in size
Summary of the method: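 DMSO vehicle served as the neutral condition. Each well held 2,000 cells given 5-fluorouridine plus compound; after 16 hr at 37 °C/5% CO2, ONE-Glo was added and luciferase measured 30 min later.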
Potency is the fitted concentration of half-maximal effect.

| Structure (SMILES) | Potency |
| --- | --- |
| O=C(C[n+]1ccccn1)c1ccccc1 | inactive |
| CC(=O)COc1ccc2c3c(c(=O)oc2c1C)CCCCC3 | inconclusive: 6.51 µM [activator, single point] |
| Cc1nc(-c2ccccc2)nc2sc(C(=O)c3ccc(F)cc3)c(N)c12 | inactive |
| CC(=O)c1ccccc1NC(=O)c1cc(S(=O)(=O)N2CCOCC2)ccc1N1CCCC1 | inconclusive: 32.6 µM [inhibitor, partial curve, poor fit] |
| NC(=O)c1ccc(NC(=O)COC(=O)CC2Sc3ccccc3NC2=O)cc1 (stereo not drawn) | inconclusive: 20.6 µM [activator, single point] |
| CCCn1c(=O)c2c(ncn2C)n(CCC)c1=O | inconclusive: 35.5 µM [activator, single point] |
| O=C(NCCC1CCCCN1S(=O)(=O)c1ccccc1)C(=O)NC1CC1 (stereo not drawn) | inactive |
| O=C(O)c1ccccc1NS(=O)(=O)c1cccc(C(F)(F)F)c1 | inactive |
| C/C(=N\NC(=O)c1ccc(C)cc1C)c1ccc(-n2ccnc2)cc1 | inactive |
| COc1ccc(NC(=O)Nc2cccc3c2O[C@H](CN(C)C(=O)Nc2c(C)noc2C)[C@@H](C)CN([C@H](C)CO)C3=O)cc1 | inconclusive: 32.6 µM [activator, partial curve, poor fit] |
| N#CC1=C(N)Oc2c(ccc3cccnc23)C1c1ccccc1 (stereo not drawn) | active: 13 µM |
| Cc1cccc(NC(=O)CCN2CCC(C(N)=O)CC2)c1 | inactive |
| COc1ccc(OCCC(=O)OCc2c(C)noc2C)cc1 | inactive |
| O=C(NCCCN1CCOCC1)c1cc(-c2ccc(O)cc2)on1 | inconclusive: 20.6 µM [activator, partial curve, poor fit] |
| Cc1ccc(C(=O)OC(C)C(=O)NC2CCCCC2)cc1S(=O)(=O)N1CCCCC1 (stereo not drawn) | inconclusive: 25.9 µM [inhibitor, single point] |
| COc1ccccc1CNC(=O)C1CCC(CNS(=O)(=O)c2cccc3cccnc23)CC1 (stereo not drawn) | inconclusive: 23.1 µM [activator, single point] |
| Cc1cccc(Oc2coc3cc(O)ccc3c2=O)c1 | inconclusive: 23.1 µM [activator, partial curve] |
| CN1CCN(C2=CC3=CC(=C(C#N)C#N)CCC3CC2)CC1 (stereo not drawn) | inactive |
| CC1(c2ccccc2)NC(=O)N(CC(=O)N2CC(=O)Nc3ccccc32)C1=O (stereo not drawn) | inactive |
| O=C1NC(Cc2ccccc2)c2nc3ccc(Cl)cc3c(=O)n2-c2ccc(Cl)cc21 (stereo not drawn) | inactive |
| CN(C(=O)Nc1ccc(Cl)cc1Cl)[C@H]1c2cc(Br)ccc2OC[C@H]1CO | active: 20.6 µM |
| Cc1ccc(C)n1NC(=O)c1ccc(O)cc1 | inconclusive: 20.6 µM [inhibitor, single point] |
| O=C(NCC1CCCO1)c1cc2n(n1)C(C(F)(F)F)CC(c1ccc(F)cc1)N2 (stereo not drawn) | inactive |
| COc1ccc(OC)c(CCNC(=O)c2ccc3c(c2)N(Cc2ccccc2)CCS3)c1 | inactive |
| Cc1ccc(NC(=O)c2cccc(C(=O)OC(C)C)n2)c(Br)c1 | inconclusive: 18.3 µM [activator, single point] |

Rewritten with bars between the fields: entries from further up.
Structure (SMILES) | Potency
COc1ccc(OCCC(=O)OCc2c(C)noc2C)cc1 | inactive
O=C(NCCCN1CCOCC1)c1cc(-c2ccc(O)cc2)on1 | inconclusive: 20.6 µM [activator, partial curve, poor fit]
Cc1ccc(C(=O)OC(C)C(=O)NC2CCCCC2)cc1S(=O)(=O)N1CCCCC1 (stereo not drawn) | inconclusive: 25.9 µM [inhibitor, single point]
COc1ccccc1CNC(=O)C1CCC(CNS(=O)(=O)c2cccc3cccnc23)CC1 (stereo not drawn) | inconclusive: 23.1 µM [activator, single point]

Following part:

| Structure (SMILES) | Potency |
| --- | --- |
| NC(=O)CC(NC(=O)Cc1ccc(Cl)cc1)c1ccc(NC2CC3CCC2C3)c([N+](=O)[O-])c1 (stereo not drawn) | inactive |
| COc1cc(C(C)=O)ccc1OCC(=O)Nc1ccccc1N1CCCCC1 | active: 5.17 µM |
| Cc1ccc2nc(NC(=O)COC(=O)c3cccnc3)sc2c1 | inconclusive: 6.51 µM [activator, partial curve, poor fit] |
| O=C(NCC(=O)N1CCCCCCC1)c1ccccc1Br | inconclusive: 29.1 µM [activator, single point] |
| O=C(NCc1nc2ccccc2[nH]1)c1cccs1 | inconclusive: 16.4 µM [activator, single point] |
| COc1ccc(N=c2oc3ccccc3cc2C(=O)Nc2ccccn2)cc1OC | inconclusive: 25.9 µM [activator, single point] |
| O=C(CNC(=O)C12CC3CC(CC(C3)C1)C2)N1CCN(S(=O)(=O)c2cccs2)CC1 | inconclusive: 13 µM [inhibitor, partial curve, poor fit] |
| Cc1nn(-c2ccccc2)c(C)c1C(=O)OCC(=O)NC12CC3CC(CC(C3)C1)C2 | active: 20.6 µM |
| CCC1(C)Cc2ccccc2-c2[nH][nH]c(=O)c21 (stereo not drawn) | inconclusive: 25.9 µM [inhibitor, single point] |
| O=C(COc1cc(Cl)c(Cl)cc1Cl)NC(=O)NC1CCCC1 | inconclusive: 20.6 µM [activator, single point] |
| Cc1ccc(NC(=O)c2cc(S(=O)(=O)N3CCOCC3)cs2)cc1 | inactive |
| Cc1sc(C(=O)Nc2ccc3ccccc3c2)cc1CC(=O)O | inconclusive: 16.4 µM [activator, partial curve] |
| Cc1c(C(=O)OCc2ccccc2)[nH]c2c1C(=O)CC(c1ccco1)C2 (stereo not drawn) | inconclusive: 6.51 µM [activator, partial curve, poor fit] |
| COc1ccc(OC)c(C2CC(=O)C3=C(C2)NC(=O)CC3c2ccc(O)c(OC)c2)c1 (stereo not drawn) | inconclusive: 13 µM [inhibitor, partial curve] |
| CC(C)(C)c1ccccc1NC(=O)c1cc(-c2ccncc2)nc2ccccc12 | active: 16.4 µM |
| CC(C)n1cc(/C=N/NC(=O)COc2cccc3cccnc23)c2ccccc21 | inconclusive: 18.4 µM [inhibitor, single point] |
| Cc1ccc(N2C(=O)N(CC(=O)Nc3cc(Cl)ccc3C)C(=O)C2C)cc1 (stereo not drawn) | inactive |
| Cn1c2ccccc2c(=O)c2cc(C#Cc3ccccn3)ccc21 | inconclusive: 11.6 µM [activator, partial curve] |
| N/C(=N\OC(=O)c1cccc([N+](=O)[O-])c1)c1cccnc1 | inconclusive: 16.4 µM [activator, partial curve] |
| O=C(CN1CCN(C(=O)c2ccccc2)CC1)Nc1cc(S(=O)(=O)N2CCCC2)ccc1Cl | inactive |
| c1cc2ccc3ccc(-n4cnnn4)c4ccc(c1)c2c34 | inconclusive: 20.6 µM [activator, partial curve, poor fit] |
| Cc1cc(/C=c2\sc3nc4ccccc4n3c2=O)c(C)n1-c1ccc(C(=O)O)cc1 | inconclusive: 5.8 µM [activator, full curve, poor fit] |
| COc1cccc(Cn2nc3c4cc(F)ccc4n(Cc4ccc(F)cc4)cc-3c2=O)c1 | inactive |
| CC(Sc1ncccn1)C(=O)NC1(C#N)CCCCC1 (stereo not drawn) | inconclusive: 29.1 µM [activator, single point] |
| CC(C)(C)c1ccc(CCC2OCC(CN3CCOCC3)O2)cc1 (stereo not drawn) | inconclusive: 25.9 µM [inhibitor, single point] |

| Structure (SMILES) | Potency |
| --- | --- |
| COc1ccc(N2CCC(CNC(=O)Nc3ccccc3)C2)cc1 (stereo not drawn) | inconclusive: 23.1 µM [inhibitor, single point] |
| Clc1ccccc1N=C1SCCS1 | inactive |
| CCOC(=O)N1CCN(c2c(N3CC=C(c4ccccc4)CC3)c(=O)c2=O)CC1 | inconclusive: 18.4 µM [inhibitor, single point] |
| Cc1cc(=O)oc2c(C)c(OCC(=O)N3CCN(c4cccc(Cl)c4)CC3)ccc12 | inconclusive: 25.9 µM [inhibitor, single point] |
| O=C1C2C3C=CC(C3)C2C(=O)N1c1ccc2c(c1)OCO2 (stereo not drawn) | inactive |
| c1ccc(N2CCOCC2)c(Nc2nc3ccccc3n3cnnc23)c1 | inconclusive: 16.4 µM [inhibitor, single point] |
| COc1cccc(N2CC(C(=O)Nc3nnc(SCc4cccnc4)s3)CC2=O)c1 (stereo not drawn) | inactive |
| O=C(CCNS(=O)(=O)c1ccccc1)N1CCN(c2ccccc2F)CC1 | inactive |
| CCOC(=O)N1CCN(Cc2nc(N)nc(Nc3ccc(Cl)cc3)n2)CC1 | inactive |
| CC(C)C[C@@H](COc1ccccc1)N1CCN(CCc2ccccc2)CCC1=O | inactive |
| COc1ccc(OCCSc2nc(C)nc3ccccc23)cc1 | inconclusive: 16.4 µM [inhibitor, single point] |
| O=C(O)Cc1nc(-c2cccnc2)sc1-c1ccc(Br)cc1 | inconclusive: 0.13 µM [activator, full curve, poor fit] |
| C/C(=N/NC(=O)c1ccccc1)c1ccc(NC(=O)C(F)(F)F)cc1 | inconclusive: 29.1 µM [activator, single point] |
| COc1ccccc1-c1noc(Cn2cc(S(=O)(=O)N3CCCC3)ccc2=O)n1 | inconclusive: 23.1 µM [inhibitor, single point] |
| Cc1nc2ccccn2c(=O)c1NC(=O)c1cccc2ccccc12 | inconclusive: 5.8 µM [inhibitor, single point] |
| C=CCNC(=O)/C(=C\c1ccc([N+](=O)[O-])cc1)NC(C)=O | inactive |
| COC(=O)/C=C1\SC(=NC(=O)c2ccc(-c3ccccc3)cc2)NC1=O | inconclusive: 16.4 µM [activator, single point] |
| COCCn1c(N)c(N(Cc2ccccc2)C(=O)COc2ccc(F)cc2Cl)c(=O)[nH]c1=O | inactive |
| COc1ccc(-c2csc(/N=C/N(C)C)n2)cc1OC | inconclusive: 20.6 µM [activator, single point] |
| O=C(Oc1ccc(F)cc1C(=O)/C=C/c1cccs1)c1cccc([N+](=O)[O-])c1 | inconclusive: 7.31 µM [activator, partial curve] |
| Cc1ccc(NC(=O)NCCN2CCCCC2)cc1C | inactive |
| N#Cc1c(-c2ccccc2)c(-c2ccccc2)n(Cc2ccco2)c1NC(=O)c1cccs1 | inactive |
| O=C(Nc1ccccc1)OC1CCC2CC1CCC2OC(=O)Nc1ccccc1 (stereo not drawn) | inconclusive: 25.9 µM [inhibitor, partial curve] |
